# The other results are listed elsewhere or left out. Shown are side measurements of this screen, not its main read-out; they come without a call. Compounds called inactive in the main read-out are mostly missing here. Potencies come from curve fits of mixed quality, noted in brackets.
# Experiment: qHTS Assay to Find Inhibitors of Chronic Active B-Cell Receptor Signaling
# Details: ABC-DLBCL IkBa-CBG/CBR reporter, luminescence ratio (green luciferase fused to IkBa over red control in TMD8 lymphoma cells), 4 h
# Procedure, shortened: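 TMD8 ABC-DLBCL cells carrying doxycycline-inducible green luciferase fused to IkappaBalpha plus unfused red luciferase were exposed to compounds (up to 46 uM) for 4 hrs at 37C. Activity came from the overlap-corrected green/red luminescence ratio.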
# [1] = measured here: CBR red luminescence, cell number
# [2] = measured here: IkBa-CBG green luminescence
Compound,AC50 [1],AC50 [2]
CC1CCCC(C)N1/N=C/c1ccc(C#N)cc1 (stereo not given),"15.8 µM [rising, single point]",–
COc1ccc(NC(=O)c2nc3nc(C)cc(C(F)F)n3n2)cc1OC,"16.4 µM [rising, partial curve, poor fit]",–
CS(=O)(=O)NCc1ccc(C(=O)NCc2ccccc2)cc1,"0.13 µM [rising, full curve, poor fit]",–
Cc1ccc(NC(=O)COC(=O)CNC(=O)c2cccc([N+](=O)[O-])c2)cc1S(=O)(=O)N1CCCCCC1,"29.1 µM [rising, partial curve, poor fit]",–
O=[N+]([O-])c1ccccc1Nc1nc(-c2cccnc2)cs1,–,"10 µM [falling, partial curve, poor fit]"
O=C(Nc1ccc(-c2nc3cccnc3s2)cc1)c1ccco1,"0.206 µM [rising, full curve, poor fit]",–
CCOC(=O)C1=C(COC(=O)c2ccc(OC)c(OC)c2OC)NC(=O)NC1C (stereo not given),"25.9 µM [falling, single point]",–
CCCCn1c(N)c(N(CC(C)C)C(=O)C2CCN(S(=O)(=O)c3ccc(C)cc3C)CC2)c(=O)[nH]c1=O,"32.6 µM [falling, partial curve, poor fit]",–
CSc1ncccc1C(=O)Nc1nc2ccc(F)cc2s1,"14.1 µM [falling, partial curve, poor fit]","1.41 µM [rising, full curve, poor fit]"
COc1ccc(C(=O)N2c3ccccc3C(=O)OC2c2ccc3c(c2)OCO3)cc1 (stereo not given),"2.91 µM [falling, full curve]",–
CN(C(=O)c1ccc2c(c1)SC1=NS(=O)(=O)CCN12)C(c1ccccc1)c1ccccc1,"16.4 µM [rising, partial curve, poor fit]",–
CC(C)(C)C(=O)Nc1cc2nn(-c3ccccc3)nc2cc1Cl,"2.91 µM [rising, full curve, poor fit]",–
Cc1cc2ccccc2n1CCNC(=O)C(C)C,"29.1 µM [rising, single point]",–
CC1=CC(C)(C)N(S(=O)(=O)c2ccc(C)cc2)c2cc(C)ccc21,"1.16 µM [rising, full curve]","1.64 µM [falling, full curve]"
CN1OC(CC(=O)O)N(c2ccc(Cl)cc2)C1=O (stereo not given),"18.4 µM [rising, partial curve]",–
Cc1ccc(NC(=O)c2nnn(-c3ccc4c(c3)OCCO4)c2N)cc1,"3.55 µM [falling, partial curve, poor fit]",–
CCCOC(=O)C1=C(C)NC2=C(C(=O)C(C(=O)OC)C(C)C2)C1c1ccc(N(C)C)cc1 (stereo not given),"15.8 µM [rising, partial curve, poor fit]",–
C=CC[C@H](CC(=O)N(CCO)Cc1ccccc1)C(=O)N[C@H](COC(=O)[C@H](CC=C)CC(=O)OC(C)(C)C)Cc1ccccc1,"29.1 µM [falling, single point]",–
Cc1nonc1CC(=O)N1CCc2c([nH]c3ccccc23)C1c1ccccc1F (stereo not given),"0.631 µM [falling, partial curve, poor fit]",–
COc1ccc(Cl)cc1NC(=O)COC(=O)Cc1cc(OC)c(OC)c(OC)c1,"4.11 µM [rising, partial curve, poor fit]",–
Brc1ccccc1C1N=C(c2ccccc2)NO1 (stereo not given),"17.8 µM [falling, single point]",–

# Whole records as entered above. Values in the order: AC50 [1] | AC50 [2]
# CN1OC(CC(=O)O)N(c2ccc(Cl)cc2)C1=O (stereo not given) reads 18.4 µM [rising, partial curve] | –
# O=[N+]([O-])c1ccccc1Nc1nc(-c2cccnc2)cs1 reads – | 10 µM [falling, partial curve, poor fit]

# More entries:

Compound,AC50 [1],AC50 [2]
O=C(O)CSc1nc2ccccc2s1,"11.2 µM [rising, partial curve]",–
CCc1nnc(NC(=O)C2Cc3ccccc3CN2S(=O)(=O)c2cccs2)s1 (stereo not given),"29.1 µM [falling, single point]",–
CC(=O)OCC(OC(C)=O)C(OC(C)=O)C(OC(C)=O)C(=O)Nc1ccc(C)cc1C (stereo not given),"14.1 µM [rising, partial curve, poor fit]",–
O=C(/C=C/c1ccc(O)c(O)c1)c1ccccc1O,"0.1 µM [falling, full curve, poor fit]",–
CCOC(=O)c1sc(NC(=O)Cc2ccc(C)cc2)nc1C,"10 µM [falling, partial curve]",–
Cc1nc(-c2c(-c3ccc(O)cc3O)noc2C(F)(F)F)cs1,"29.1 µM [falling, single point]",–
CCN(CC)c1ccc(C(=O)c2ccccc2C(=O)O)c(O)c1,"25.9 µM [falling, partial curve, poor fit]",–
CC(=O)Nc1ccc(NC(=O)c2ccc(CSc3ccccc3)o2)cc1,"0.794 µM [falling, full curve, poor fit]",–
O=C(CSc1n[nH]c(=O)n1Cc1ccco1)c1ccc2c(c1)OCCO2,"0.501 µM [falling, partial curve, poor fit]",–
Cc1cc(Oc2ccc(N)cn2)cc(C)c1Cl,"4.47 µM [rising, single point]",–
O=C(CSC1=NCCN1)NC12CC3CC(CC(C3)C1)C2,"15.8 µM [falling, single point]",–
S=c1[nH]nc(-c2ccc(Cl)cc2Cl)n1Cc1ccccc1,"23.1 µM [rising, single point]",–
O=C(c1c(O)c2ccccc2oc1=O)C1CCCCC1,"23.1 µM [falling, single point]",–
Cc1nc(-c2ccc3c(c2)OCCO3)cs1,"1.12 µM [rising, partial curve, poor fit]",–
Oc1c(Br)cc(Br)cc1C=Nc1ccc2[nH]ncc2c1,"15.8 µM [falling, partial curve]",–
COc1ccc(NS(=O)(=O)c2ccc3oc(Nc4ccc5c(c4)OCCO5)nc3c2)cc1,"0.92 µM [rising, full curve, poor fit]",–
Cc1[nH]c2ccccc2c1CCN(Cc1cccs1)C(=S)Nc1ccccc1,"3.55 µM [rising, partial curve, poor fit]",–
Cc1ccc2nc(NC(=O)CCn3c(=O)sc4ccccc43)sc2c1,"29.1 µM [falling, single point]",–
COc1ccc(S(=O)(=O)N2CCOC2CNC(=O)C(=O)NCCCc2ccccc2)cc1 (stereo not given),"0.708 µM [rising, full curve, poor fit]",–
CCCc1cc(C(=O)Nc2cc(Br)ccc2O)no1,"0.259 µM [rising, full curve, poor fit]",–
Cc1ccc(Oc2ccc(NC(=O)Cn3ccsc3=N)cc2)cc1,"9.2 µM [falling, partial curve, poor fit]",–

Compound,AC50 [1],AC50 [2]
COc1cccc(C(=O)O/N=C(\C)c2cnccn2)c1,"6.31 µM [rising, single point]",–
O=C(NC(=S)NN1CCCCC1c1cccnc1)c1ccc(Cl)cc1Cl (stereo not given),"6.31 µM [rising, single point]",–
O=S(=O)([O-])CCC[N+]1(CC#Cc2ccccc2)CCCCC1,"11.2 µM [rising, partial curve, poor fit]",–
C=CCSc1nc(=O)n2cccc(C)c2n1,"16.4 µM [rising, partial curve, poor fit]",–
O=C(c1ccccc1)[C@@H]1[C@@H]2C(=O)N(c3ccc(F)cc3)C(=O)[C@@H]2C2CCCN21 (stereo not given in full),"10 µM [falling, partial curve]",–
O=C(O)c1ccc(Nc2nc3ccccc3nc2NS(=O)(=O)c2ccc(F)cc2)cc1,"0.501 µM [falling, full curve]",–
CCOc1ccc(CN(C)c2nc(-c3cccnc3)nc3ccccc23)cc1OC,"35.5 µM [falling, single point]",–
CC(Nc1ccc(Br)cn1)c1cc(Cl)ccc1O (stereo not given),"2.31 µM [falling, partial curve, poor fit]",–
COc1ccc(S(=O)(=O)N(C)C[C@H]2Oc3c(NC(=O)C4CCCCC4)cccc3C(=O)N([C@H](C)CO)C[C@@H]2C)cc1,"6.51 µM [falling, single point]",–
CCOC(=O)c1c(Nc2ccc(Cl)cc2)sc(/C=C2\C=Nc3ccccc32)c1O,"0.146 µM [falling, full curve, poor fit]",–
CCN(C(=O)COc1ccccc1[N+](=O)[O-])C1CCS(=O)(=O)C1 (stereo not given),"13 µM [falling, partial curve]",–
Cn1c(=O)c2c(nc(CN3CCc4ccccc4C3)n2Cc2ccccc2F)n(C)c1=O,"29.1 µM [falling, single point]",–
Cn1cccc1-c1nc2ccc(NC(=O)c3ccco3)cc2[nH]1,"4.61 µM [falling, full curve, poor fit]",–
Cc1cc(C(=O)N=Nc2c(O)n(C(C)C)c3ccccc23)n[nH]1,"8.91 µM [rising, partial curve]",–
O=c1c2c(-c3ccc([N+](=O)[O-])cc3)ccnc2[nH]n1-c1ccccc1,"11.2 µM [rising, partial curve, poor fit]",–
Cc1ccc(OCCC(=O)OCC(=O)NC(=O)c2ccccc2)cc1,"14.6 µM [rising, partial curve]",–
Fc1ccc(-c2nnc(-c3ccc(Cl)cc3)o2)cc1,"0.251 µM [rising, full curve, poor fit]",–
COc1ccc(OCc2cccc(C(=O)Nc3ccc(CN4CCCCC4)cc3)c2)cc1,"32.6 µM [falling, single point]",–
CNC(=S)Nc1ccc(OC(F)(F)F)cc1,"35.5 µM [rising, single point]",–
COc1ccccc1C1CC(=O)n2c(nc(-c3ccccc3)c2-c2ccccc2)S1 (stereo not given),"18.4 µM [falling, partial curve, poor fit]",–
CC(=O)Nc1cccc(Oc2nc(C)cc(C)c2C#N)c1,"29.1 µM [rising, single point]",–

# Reference: PubChem BioAssay AID493014 (National Center for Advancing Translational Sciences (NCATS), 2011)
